PubChem BioAssay AID743121 – NCATS – 2013
Screen: 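Genes whose silencing strengthens cell killing by camptothecin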 (primary screen). Cell system: MDA-MB-231 cells, a human breast cancer line. Reagents: single siRNA against human genes, 20 nM siRNA (0.8 pmol per well). Duration: 120 h (drug added 48 h after transfection, read 72 h later). Treatment: camptothecin 20 nM (about EC30) for 72 h; vehicle 0.1% DMSO in parallel plates. Measured: 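CellTiter-Glo ATP signal, scaled to control siRNA as percent viability; sensitisation given as log2 of untreated divided by camptothecin-treated viability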. Direction: log2 vehicle/camptothecin viability: higher = stronger sensitisation to camptothecin; viability with camptothecin and viability without drug: higher = more viable cells. Rule for the call: 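Active genes have an RSA gene-level p-value below 0.001, computed from the ratios of their separate siRNAs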.
In all, the deposit lists about 26,000 reagents; shown is a random part of them. 167 of all reagents (0.63%) were called active. 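Calls are per gene from RSA p-values that are not deposited; an individual active-marked siRNA can sensitise only weakly.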 The numbers tell different reagents against one gene apart.

gene	reagent no.	log2 vehicle/camptothecin viability	viability with camptothecin (% of control)	viability without drug (% of control)	activity call
GPR21 (GeneID 2844)	1	0.158	87.2	97.3	inactive
GPR21 (GeneID 2844)	2	-0.177	96.1	85	inactive
GPR21 (GeneID 2844)	3	-0.0292	81.2	79.6	inactive
GPR21 (GeneID 2844)	4	0.121	60.6	65.9	inactive
ADCY1 (GeneID 107)	1	0.0216	76.7	77.9	inactive
ADCY1 (GeneID 107)	2	-0.0918	84.5	79.3	inactive
ADCY1 (GeneID 107)	3	-0.488	65.8	46.9	inactive
ADCY1 (GeneID 107)	4	0.0954	83.8	89.5	inactive
RFWD3 (GeneID 55159)	1	0.0484	95.4	98.7	inactive
RFWD3 (GeneID 55159)	2	-0.531	75.9	52.6	inactive
RFWD3 (GeneID 55159)	3	-0.303	92.6	75	inactive
RFWD3 (GeneID 55159)	4	1.15	28.3	62.9	inactive
GAK (GeneID 2580)	1	-0.586	86	57.3	inactive
GAK (GeneID 2580)	2	-0.455	84.4	61.6	inactive
GAK (GeneID 2580)	3	-0.5	60.7	42.9	inactive
GAK (GeneID 2580)	4	-0.392	99.3	75.6	inactive
SORT1 (GeneID 6272)	1	0.193	55	62.8	inactive
SORT1 (GeneID 6272)	2	-0.124	93	85.3	inactive
SORT1 (GeneID 6272)	3	0.0386	102	105	inactive
SORT1 (GeneID 6272)	4	0.492	29.6	41.7	inactive
LPAR4 (GeneID 2846)	1	-0.47	98	70.7	inactive
LPAR4 (GeneID 2846)	2	-0.514	101	70.7	inactive
LPAR4 (GeneID 2846)	3	-0.192	68.3	59.8	inactive
P2RX6 (GeneID 9127)	1	0.591	50.7	76.5	inactive
P2RX6 (GeneID 9127)	2	-0.188	93	81.7	inactive
P2RX6 (GeneID 9127)	3	-0.579	32.4	21.7	inactive
P2RX6 (GeneID 9127)	4	0.154	67.7	75.4	inactive
CTDSP2 (GeneID 10106)	1	-0.332	68	54	inactive
CTDSP2 (GeneID 10106)	2	-0.43	43.7	32.5	inactive
CTDSP2 (GeneID 10106)	3	-0.258	68	56.9	inactive
CTDSP2 (GeneID 10106)	4	-0.237	85.6	72.7	inactive
